# According to the supplement of paper PMC8728848:
# Some of the results follow.
# B1: Tp0751, 83732 (protein)
# chain: MSYYHHHHHHLESTSLYKKAGFQHGHVPPRRIPPHDTFGALPTAALPSNARDTAAHPSDTADNTSGSSTTTDPRSHGNAPPAPVGGAAQTHTQPPVQTAMRIALWNRATHGEQGALQHLLAGLWIQTEISPNSGDIHPLLFFDREHAEITFSRASVQEIFLVDSAHTHRKTVSFLTRNTAISSIRRRLEVTFESHEVIHVRAVEDVARLKIGSTSMWDGQYTRYHAGPASAPSP
# Tests used:
# Assay in all cases: glycan array binding signal (z-score within array); higher = stronger binding
# Conditions in all cases: glycan notation: IUPAC condensed, linker removed
# [1] = molecular target: Gal(b1-4)Glc
# In short: (§1)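 Glycan array data were curated from 3228 arrays in the Consortium for Functional Glycomics database and kept only where the protein sequence was available. Glycan names were converted to IUPAC-condensed notation, and columns mapping to the same glycan were averaged. The binding signal is a within-array Z-score, averaged across arrays of the same protein sequence at different concentrations or buffers and across linkers. Negative Z-scores can be read as non-binding.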
# [2] = molecular target: Gal(b1-4)Glc6S
# In short: as §1
# [3] = molecular target: Gal(b1-4)GlcNAc
# In short: as §1
# [4] = molecular target: Gal(b1-4)GlcNAc(a1-6)Gal(b1-4)GlcNAc
# In short: as §1
# [5] = molecular target: Gal(b1-4)GlcNAc(b1-2)Man
# In short: as §1
# [6] = molecular target: Gal(b1-4)GlcNAc(b1-2)Man(a1-3)Man(b1-4)GlcNAc(b1-4)GlcNAc
# In short: as §1
# [7] = molecular target: Gal(b1-4)GlcNAc(b1-2)Man(a1-3)[Gal(b1-4)GlcNAc(b1-2)Man(a1-6)]Man(b1-4)GlcNAc(b1-4)GlcNAc
# In short: as §1
# [8] = molecular target: Gal(b1-4)GlcNAc(b1-2)Man(a1-3)[Gal(b1-4)GlcNAc(b1-2)Man(a1-6)]Man(b1-4)GlcNAc(b1-4)[Fuc(a1-6)]GlcNAc
# In short: as §1
# [9] = molecular target: Gal(b1-4)GlcNAc(b1-2)Man(a1-3)[Gal(b1-4)GlcNAc(b1-2)Man(a1-6)][Gal(b1-4)GlcNAc(b1-4)]Man(b1-4)GlcNAc(b1-4)[Fuc(a1-6)]GlcNAc
# In short: as §1
# [10] = molecular target: Gal(b1-4)GlcNAc(b1-2)Man(a1-3)[Gal(b1-4)GlcNAc(b1-2)Man(a1-6)][GlcNAc(b1-4)]Man(b1-4)GlcNAc(b1-4)[Fuc(a1-6)]GlcNAc
# In short: as §1
# [11] = molecular target: Gal(b1-4)GlcNAc(b1-2)Man(a1-3)[GlcNAc(b1-2)Man(a1-6)]Man(b1-4)GlcNAc(b1-4)GlcNAc
# In short: as §1
# [12] = molecular target: Gal(b1-4)GlcNAc(b1-2)Man(a1-3)[GlcNAc(b1-4)][Gal(b1-4)GlcNAc(b1-2)Man(a1-6)]Man(b1-4)GlcNAc(b1-4)GlcNAc
# In short: as §1
# [13] = molecular target: Gal(b1-4)GlcNAc(b1-2)Man(a1-3)[Man(a1-6)]Man(b1-4)GlcNAc(b1-4)GlcNAc
# In short: as §1
# [14] = molecular target: Gal(b1-4)GlcNAc(b1-2)Man(a1-6)Man(b1-4)GlcNAc(b1-4)GlcNAc
# In short: as §1
# [15] = molecular target: Gal(b1-4)GlcNAc(b1-2)Man(a1-6)[GlcNAc(b1-2)Man(a1-3)]Man(b1-4)GlcNAc(b1-4)GlcNAc
# In short: as §1
# [16] = molecular target: Gal(b1-4)GlcNAc(b1-2)Man(a1-6)[Man(a1-3)]Man(b1-4)GlcNAc(b1-4)GlcNAc
# In short: as §1
# [17] = molecular target: Gal(b1-4)GlcNAc(b1-2)[Gal(b1-4)GlcNAc(b1-4)]Man(a1-3)[Gal(b1-4)GlcNAc(b1-2)Man(a1-6)]Man(b1-4)GlcNAc(b1-4)GlcNAc
# In short: as §1
# [18] = molecular target: Gal(b1-4)GlcNAc(b1-2)[Gal(b1-4)GlcNAc(b1-4)]Man(a1-3)[Gal(b1-4)GlcNAc(b1-2)[Gal(b1-4)GlcNAc(b1-6)]Man(a1-6)]Man(b1-4)GlcNAc(b1-4)GlcNAc
# In short: as §1
# [19] = molecular target: Gal(b1-4)GlcNAc(b1-2)[Gal(b1-4)GlcNAc(b1-4)]Man(a1-3)[GlcNAc(b1-4)][Gal(b1-4)GlcNAc(b1-2)Man(a1-6)]Man(b1-4)GlcNAc(b1-4)GlcNAc
# In short: as §1
# [20] = molecular target: Gal(b1-4)GlcNAc(b1-2)[Gal(b1-4)GlcNAc(b1-4)]Man(a1-3)[GlcNAc(b1-4)][Gal(b1-4)GlcNAc(b1-2)[Gal(b1-4)GlcNAc(b1-6)]Man(a1-6)]Man(b1-4)GlcNAc(b1-4)GlcNAc
# In short: as §1
# [21] = molecular target: Gal(b1-4)GlcNAc(b1-2)[Gal(b1-4)GlcNAc(b1-6)]Man(a1-6)[Gal(b1-4)GlcNAc(b1-2)Man(a1-3)]Man(b1-4)GlcNAc(b1-4)GlcNAc
# In short: as §1
# [22] = molecular target: Gal(b1-4)GlcNAc(b1-2)[Gal(b1-4)GlcNAc(b1-6)]Man(a1-6)[Gal(b1-4)GlcNAc(b1-2)Man(a1-3)]Man(b1-4)GlcNAc(b1-4)[Fuc(a1-6)]GlcNAc
# In short: as §1
binder,measurement,setting,value
B1,glycan array binding signal (z-score),[1],-0.383
same,glycan array binding signal (z-score),[2],0.366
same,glycan array binding signal (z-score),[3],0.21
same,glycan array binding signal (z-score),[4],-0.369
same,glycan array binding signal (z-score),[5],0.117
same,glycan array binding signal (z-score),[6],0.237
same,glycan array binding signal (z-score),[7],-0.395
same,glycan array binding signal (z-score),[8],-0.088
same,glycan array binding signal (z-score),[9],-0.093
same,glycan array binding signal (z-score),[10],-0.561
same,glycan array binding signal (z-score),[11],-0.071
same,glycan array binding signal (z-score),[12],-0.493
same,glycan array binding signal (z-score),[13],-0.826
same,glycan array binding signal (z-score),[14],-0.083
same,glycan array binding signal (z-score),[15],-0.456
same,glycan array binding signal (z-score),[16],-0.482
same,glycan array binding signal (z-score),[17],0.091
same,glycan array binding signal (z-score),[18],0.31
same,glycan array binding signal (z-score),[19],0.421
same,glycan array binding signal (z-score),[20],0.259
same,glycan array binding signal (z-score),[21],-0.642
same,glycan array binding signal (z-score),[22],-0.483
